# From patent US5916876A (Centocor, Inc., priority 1994, dated 1999)
# HELM strings list residues between dots; [ac] is acetyl, [am] amide, other brackets name non-standard units.
# Experiment: general procedure: Boc solid-phase peptide synthesis; 4-methyl benzhydrylamine resin
# Conditions: whole synthesis, scale 0.5 mmol
substance,measurement,value
PEPTIDE1{D.Y.L.N.K.V.L.P.Y.Y.S.S.Y.Y.V.[am]}$$$$V2.0,crude mass,1.044 g
same,isolated mass,238 mg
